Values from PubChem BioAssay AID1259308 (NCATS, 2017)

Purpose: 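Candidate targets for better recombinant protein yield in mammalian cells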 (primary screen)
System: human HEK293 embryonic kidney cells stably expressing firefly luciferase (HEK-CMV-Luc2-Hygro)
Reagent: single siRNA against human genes, 0.8 pmol siRNA per well
Timing: 72 h
Detection: 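Reporter luminescence and viable-cell signal on separate replicate plates, given as percent of non-targeting control and median/MAD z-scores, plus per-cell luciferase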
Reading the numbers: total luciferase, z-score and total luciferase, % of control: higher = more reporter protein produced
Active means: 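Active when the median/MAD z-score for overall luciferase is greater than 3; a gene was taken forward for validation with new siRNAs if at least two of its three siRNAs passed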
Meaning of the calls: active = raised luciferase; inactive = no rise
The deposit covers about 59,000 reagents; below is a part drawn at random. Over the whole deposit, about 1,510 (2.6%) got an active call. 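Calls use total luciferase alone and ignore viability, so some active siRNAs may act by altering cell number.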 Entries without a mark were called inactive. The numbers tell different reagents against one gene apart. Further read-outs or replicates are left out here. No sequences are given here.

How did the screen score SPINDOC (spindlin interactor and repressor of chromatin binding) #1?
total luciferase, z-score: 2.99; total luciferase, % of control: 141

What did the screen give for SPINDOC (spindlin interactor and repressor of chromatin binding) #2?
total luciferase, z-score: 1.39; total luciferase, % of control: 109

Which result is listed for SPINDOC (spindlin interactor and repressor of chromatin binding) #3?
total luciferase, z-score: 1.71; total luciferase, % of control: 116

How did the screen score NECAP2 (NECAP endocytosis associated 2) #1?
total luciferase, z-score: -0.866; total luciferase, % of control: 64.7

What did the screen give for NECAP2 (NECAP endocytosis associated 2) #2?
total luciferase, z-score: -0.789; total luciferase, % of control: 66.2

What is on record for NECAP2 (NECAP endocytosis associated 2) #3?
total luciferase, z-score: -0.825; total luciferase, % of control: 65.5

What is on record for AEBP1 (AE binding protein 1) #1?
total luciferase, z-score: -1.48; total luciferase, % of control: 52.4

Which result is listed for AEBP1 (AE binding protein 1) #2?
total luciferase, z-score: -1.91; total luciferase, % of control: 44

How did the screen score AEBP1 (AE binding protein 1) #3?
total luciferase, z-score: 0.568; total luciferase, % of control: 93.2

Which result is listed for ZNF56P (zinc finger protein 56, pseudogene) #1?
total luciferase, z-score: 0.0712; total luciferase, % of control: 83.3

With ZNF56P (zinc finger protein 56, pseudogene) #2, what was measured?
total luciferase, z-score: -0.341; total luciferase, % of control: 75.1

For ZNF56P (zinc finger protein 56, pseudogene) #3, what does the deposit list?
total luciferase, z-score: -0.531; total luciferase, % of control: 71.3

With TLCD3B (TLC domain containing 3B) #1, what does the deposit list?
total luciferase, z-score: 3.01 (active); total luciferase, % of control: 142

How did the screen score TLCD3B (TLC domain containing 3B) #2?
total luciferase, z-score: 1.75; total luciferase, % of control: 117

With TLCD3B (TLC domain containing 3B) #3, what was measured?
total luciferase, z-score: -0.388; total luciferase, % of control: 74.2

With RCE1 (Ras converting CAAX endopeptidase 1) #1, what was measured?
total luciferase, z-score: 0.941; total luciferase, % of control: 101

What did the screen give for RCE1 (Ras converting CAAX endopeptidase 1) #2?
total luciferase, z-score: -0.975; total luciferase, % of control: 62.5

With RCE1 (Ras converting CAAX endopeptidase 1) #3, what does the deposit list?
total luciferase, z-score: 0.699; total luciferase, % of control: 95.8

4 entries from above, ordered by “total luciferase, % of control”, low to high.
ZNF56P (zinc finger protein 56, pseudogene) #3: total luciferase, z-score = -0.531; total luciferase, % of control = 71.3
ZNF56P (zinc finger protein 56, pseudogene) #2: total luciferase, z-score = -0.341; total luciferase, % of control = 75.1
TLCD3B (TLC domain containing 3B) #2: total luciferase, z-score = 1.75; total luciferase, % of control = 117
TLCD3B (TLC domain containing 3B) #1: total luciferase, z-score = 3.01 (active); total luciferase, % of control = 142

Further reagents follow:
For POLR1E (RNA polymerase I subunit E) #1, what does the deposit list?
total luciferase, z-score: -0.684; total luciferase, % of control: 68.3

How did the screen score POLR1E (RNA polymerase I subunit E) #2?
total luciferase, z-score: -0.0524; total luciferase, % of control: 80.8

With POLR1E (RNA polymerase I subunit E) #3, how do the results read?
total luciferase, z-score: 1.35; total luciferase, % of control: 109

For EXOSC3 (exosome component 3) #1, how do the results read?
total luciferase, z-score: 0.785; total luciferase, % of control: 97.5

Which result is listed for EXOSC3 (exosome component 3) #2?
total luciferase, z-score: -0.428; total luciferase, % of control: 73.4

How did the screen score EXOSC3 (exosome component 3) #3?
total luciferase, z-score: -0.478; total luciferase, % of control: 72.4

For PMEL (premelanosome protein) #1, what does the deposit list?
total luciferase, z-score: -0.819; total luciferase, % of control: 65.6

Which result is listed for PMEL (premelanosome protein) #2?
total luciferase, z-score: 1.51; total luciferase, % of control: 112

How did the screen score PMEL (premelanosome protein) #3?
total luciferase, z-score: -1.02; total luciferase, % of control: 61.5

Which result is listed for TAF7 (TATA-box binding protein associated factor 7) #1?
total luciferase, z-score: 1.5; total luciferase, % of control: 112

What is on record for TAF7 (TATA-box binding protein associated factor 7) #2?
total luciferase, z-score: 0.825; total luciferase, % of control: 98.3

With TAF7 (TATA-box binding protein associated factor 7) #3, what does the deposit list?
total luciferase, z-score: 0.799; total luciferase, % of control: 97.8

For DAP (death associated protein) #1, what does the deposit list?
total luciferase, z-score: 3.15 (active); total luciferase, % of control: 144

For DAP (death associated protein) #2, how do the results read?
total luciferase, z-score: 0.712; total luciferase, % of control: 96.1

With DAP (death associated protein) #3, what was measured?
total luciferase, z-score: -0.239; total luciferase, % of control: 77.1
